Structures can show the parent of a compound that is named as a salt. Some of the results follow. Single values are uncertain here, since repeats match poorly.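 FDA-approved drugs were each paired with colistin at one-eighth its MIC and screened against a multidrug-resistant, mcr-1-positive clinical E. coli isolate, with OD600 read after 24 h. Drug-free bacteria served as growth control, plain broth as blank. Combinations were active if OD600 dropped below 0.2.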
System: Escherichia coli 42 (mcr-1-positive clinical isolate)
Assay: OD600 after 24 h growth with compound plus colistin (absorbance units (OD600)); higher = more bacterial growth (less inhibition)
Conditions: first compound 25 µM; colistin concentration 0.5 ug/mL; incubation time 24 h; 37 °C

Row | SMILES | OD600
1 | CN1[C@@H]2C[C@@H](OC(=O)[C@H](CO)c3ccccc3)C[C@H]1[C@@H]1O[C@@H]12 [Scopolamine hydrobromide] + CCC(C)CCCC(=O)N[C@@H](CCN)C(=O)N[C@H](C(=O)N[C@@H](CCN)C(=O)N[C@H]1CCNC(=O)[C@H]([C@@H](C)O)NC(=O)[C@H](CCN)NC(=O)[C@H](CCN)NC(=O)[C@H](CC(C)C)NC(=O)[C@@H](CC(C)C)NC(=O)[C@H](CCN)NC1=O)[C@@H](C)O [colistin] | inactive: 0.901
2 | COc1ccc(OC)c(C(O)C(C)N)c1 (stereo unspecified) [Methoxamine hydrochloride] + CCC(C)CCCC(=O)N[C@@H](CCN)C(=O)N[C@H](C(=O)N[C@@H](CCN)C(=O)N[C@H]1CCNC(=O)[C@H]([C@@H](C)O)NC(=O)[C@H](CCN)NC(=O)[C@H](CCN)NC(=O)[C@H](CC(C)C)NC(=O)[C@@H](CC(C)C)NC(=O)[C@H](CCN)NC1=O)[C@@H](C)O [colistin] | inactive: 1.13
3 | CN(C)[C@@H]1C(=O)C(C(N)=O)=C(O)[C@@]2(O)C(=O)C3=C(O)c4c(O)cccc4[C@@](C)(O)[C@H]3C[C@@H]12 [Tetracycline] + CCC(C)CCCC(=O)N[C@@H](CCN)C(=O)N[C@H](C(=O)N[C@@H](CCN)C(=O)N[C@H]1CCNC(=O)[C@H]([C@@H](C)O)NC(=O)[C@H](CCN)NC(=O)[C@H](CCN)NC(=O)[C@H](CC(C)C)NC(=O)[C@@H](CC(C)C)NC(=O)[C@H](CCN)NC1=O)[C@@H](C)O [colistin] | inactive: 0.928
4 | N.N.[Cl][Pt][Cl] [Cisplatin] + CCC(C)CCCC(=O)N[C@@H](CCN)C(=O)N[C@H](C(=O)N[C@@H](CCN)C(=O)N[C@H]1CCNC(=O)[C@H]([C@@H](C)O)NC(=O)[C@H](CCN)NC(=O)[C@H](CCN)NC(=O)[C@H](CC(C)C)NC(=O)[C@@H](CC(C)C)NC(=O)[C@H](CCN)NC1=O)[C@@H](C)O [colistin] | inactive: 0.928
5 | COc1cc2c(cc1OC)C1CC(=O)C(CC(C)C)CN1CC2 (stereo unspecified) [Tetrabenazine] + CCC(C)CCCC(=O)N[C@@H](CCN)C(=O)N[C@H](C(=O)N[C@@H](CCN)C(=O)N[C@H]1CCNC(=O)[C@H]([C@@H](C)O)NC(=O)[C@H](CCN)NC(=O)[C@H](CCN)NC(=O)[C@H](CC(C)C)NC(=O)[C@@H](CC(C)C)NC(=O)[C@H](CCN)NC1=O)[C@@H](C)O [colistin] | inactive: 1.15
6 | O=c1[nH]c2ccccc2n1C1CCN(CCCC(c2ccc(F)cc2)c2ccc(F)cc2)CC1 [Pimozide] + CCC(C)CCCC(=O)N[C@@H](CCN)C(=O)N[C@H](C(=O)N[C@@H](CCN)C(=O)N[C@H]1CCNC(=O)[C@H]([C@@H](C)O)NC(=O)[C@H](CCN)NC(=O)[C@H](CCN)NC(=O)[C@H](CC(C)C)NC(=O)[C@@H](CC(C)C)NC(=O)[C@H](CCN)NC1=O)[C@@H](C)O [colistin] | active: 0.037
7 | O=C(O[C@H]1C[N+]2(CCCOc3ccccc3)CCC1CC2)C(O)(c1cccs1)c1cccs1 [Aclidinium bromide] + CCC(C)CCCC(=O)N[C@@H](CCN)C(=O)N[C@H](C(=O)N[C@@H](CCN)C(=O)N[C@H]1CCNC(=O)[C@H]([C@@H](C)O)NC(=O)[C@H](CCN)NC(=O)[C@H](CCN)NC(=O)[C@H](CC(C)C)NC(=O)[C@@H](CC(C)C)NC(=O)[C@H](CCN)NC1=O)[C@@H](C)O [colistin] | inactive: 0.982
8 | COc1ccc(C(CN(C)C)C2(O)CCCCC2)cc1 (stereo unspecified) [Venlafaxine hydrochloride] + CCC(C)CCCC(=O)N[C@@H](CCN)C(=O)N[C@H](C(=O)N[C@@H](CCN)C(=O)N[C@H]1CCNC(=O)[C@H]([C@@H](C)O)NC(=O)[C@H](CCN)NC(=O)[C@H](CCN)NC(=O)[C@H](CC(C)C)NC(=O)[C@@H](CC(C)C)NC(=O)[C@H](CCN)NC1=O)[C@@H](C)O [colistin] | inactive: 0.882
9 | CCN(C)C(=O)Oc1cccc([C@H](C)N(C)C)c1 [Rivastigmine tartrate] + CCC(C)CCCC(=O)N[C@@H](CCN)C(=O)N[C@H](C(=O)N[C@@H](CCN)C(=O)N[C@H]1CCNC(=O)[C@H]([C@@H](C)O)NC(=O)[C@H](CCN)NC(=O)[C@H](CCN)NC(=O)[C@H](CC(C)C)NC(=O)[C@@H](CC(C)C)NC(=O)[C@H](CCN)NC1=O)[C@@H](C)O [colistin] | inactive: 0.768
10 | COc1ccc2c(c1)[C@]13CCCC[C@@H]1[C@H](C2)N(C)CC3 [Dextromethorphan HBr monohydrate] + CCC(C)CCCC(=O)N[C@@H](CCN)C(=O)N[C@H](C(=O)N[C@@H](CCN)C(=O)N[C@H]1CCNC(=O)[C@H]([C@@H](C)O)NC(=O)[C@H](CCN)NC(=O)[C@H](CCN)NC(=O)[C@H](CC(C)C)NC(=O)[C@@H](CC(C)C)NC(=O)[C@H](CCN)NC1=O)[C@@H](C)O [colistin] | inactive: 1.32
11 | C=C1C[C@@H]2[C@H](CC[C@]3(C)C(=O)CC[C@@H]23)[C@@]2(C)C=CC(=O)C=C12 [Exemestane] + CCC(C)CCCC(=O)N[C@@H](CCN)C(=O)N[C@H](C(=O)N[C@@H](CCN)C(=O)N[C@H]1CCNC(=O)[C@H]([C@@H](C)O)NC(=O)[C@H](CCN)NC(=O)[C@H](CCN)NC(=O)[C@H](CC(C)C)NC(=O)[C@@H](CC(C)C)NC(=O)[C@H](CCN)NC1=O)[C@@H](C)O [colistin] | inactive: 0.811
12 | COc1cc2c(c(OC)c1OC)-c1ccc(OC)c(=O)cc1[C@@H](NC(C)=O)CC2 [Colchicine] + CCC(C)CCCC(=O)N[C@@H](CCN)C(=O)N[C@H](C(=O)N[C@@H](CCN)C(=O)N[C@H]1CCNC(=O)[C@H]([C@@H](C)O)NC(=O)[C@H](CCN)NC(=O)[C@H](CCN)NC(=O)[C@H](CC(C)C)NC(=O)[C@@H](CC(C)C)NC(=O)[C@H](CCN)NC1=O)[C@@H](C)O [colistin] | inactive: 1.08
13 | C=CN1CCCC1=O.II [Povidone iodine] + CCC(C)CCCC(=O)N[C@@H](CCN)C(=O)N[C@H](C(=O)N[C@@H](CCN)C(=O)N[C@H]1CCNC(=O)[C@H]([C@@H](C)O)NC(=O)[C@H](CCN)NC(=O)[C@H](CCN)NC(=O)[C@H](CC(C)C)NC(=O)[C@@H](CC(C)C)NC(=O)[C@H](CCN)NC1=O)[C@@H](C)O [colistin] | inactive: 0.999
14 | Cn1c(CCCC(=O)O)nc2cc(N(CCCl)CCCl)ccc21 [Bendamustine] + CCC(C)CCCC(=O)N[C@@H](CCN)C(=O)N[C@H](C(=O)N[C@@H](CCN)C(=O)N[C@H]1CCNC(=O)[C@H]([C@@H](C)O)NC(=O)[C@H](CCN)NC(=O)[C@H](CCN)NC(=O)[C@H](CC(C)C)NC(=O)[C@@H](CC(C)C)NC(=O)[C@H](CCN)NC1=O)[C@@H](C)O [colistin] | inactive: 1.09
15 | N=C(N)NN [Aminoguanidine hydrochloride] + CCC(C)CCCC(=O)N[C@@H](CCN)C(=O)N[C@H](C(=O)N[C@@H](CCN)C(=O)N[C@H]1CCNC(=O)[C@H]([C@@H](C)O)NC(=O)[C@H](CCN)NC(=O)[C@H](CCN)NC(=O)[C@H](CC(C)C)NC(=O)[C@@H](CC(C)C)NC(=O)[C@H](CCN)NC1=O)[C@@H](C)O [colistin] | inactive: 0.667
16 | C[N+](C)(C)CCCCCCCCCC[N+](C)(C)C [Decamethonium bromide] + CCC(C)CCCC(=O)N[C@@H](CCN)C(=O)N[C@H](C(=O)N[C@@H](CCN)C(=O)N[C@H]1CCNC(=O)[C@H]([C@@H](C)O)NC(=O)[C@H](CCN)NC(=O)[C@H](CCN)NC(=O)[C@H](CC(C)C)NC(=O)[C@@H](CC(C)C)NC(=O)[C@H](CCN)NC1=O)[C@@H](C)O [colistin] | inactive: 0.849
17 | C[N+]12CCC(CC1)C(OC(=O)C(O)(c1ccccc1)c1ccccc1)C2 (stereo unspecified) [Clidinium bromide] + CCC(C)CCCC(=O)N[C@@H](CCN)C(=O)N[C@H](C(=O)N[C@@H](CCN)C(=O)N[C@H]1CCNC(=O)[C@H]([C@@H](C)O)NC(=O)[C@H](CCN)NC(=O)[C@H](CCN)NC(=O)[C@H](CC(C)C)NC(=O)[C@@H](CC(C)C)NC(=O)[C@H](CCN)NC1=O)[C@@H](C)O [colistin] | inactive: 1.19
18 | CN(C)C(=O)Oc1ccc[n+](C)c1 [Pyridostigmine bromide] + CCC(C)CCCC(=O)N[C@@H](CCN)C(=O)N[C@H](C(=O)N[C@@H](CCN)C(=O)N[C@H]1CCNC(=O)[C@H]([C@@H](C)O)NC(=O)[C@H](CCN)NC(=O)[C@H](CCN)NC(=O)[C@H](CC(C)C)NC(=O)[C@@H](CC(C)C)NC(=O)[C@H](CCN)NC1=O)[C@@H](C)O [colistin] | inactive: 0.719
19 | C[C@]12CC[C@H]3[C@@H](CC[C@@]45O[C@@H]4C(O)=C(C#N)C[C@]35C)[C@@H]1CC[C@@H]2O [Trilostane] + CCC(C)CCCC(=O)N[C@@H](CCN)C(=O)N[C@H](C(=O)N[C@@H](CCN)C(=O)N[C@H]1CCNC(=O)[C@H]([C@@H](C)O)NC(=O)[C@H](CCN)NC(=O)[C@H](CCN)NC(=O)[C@H](CC(C)C)NC(=O)[C@@H](CC(C)C)NC(=O)[C@H](CCN)NC1=O)[C@@H](C)O [colistin] | inactive: 1.02
20 | COc1cc([C@@H]2c3cc4c(cc3[C@H](O)[C@H]3COC(=O)[C@H]23)OCO4)cc(OC)c1OC [Podofilox] + CCC(C)CCCC(=O)N[C@@H](CCN)C(=O)N[C@H](C(=O)N[C@@H](CCN)C(=O)N[C@H]1CCNC(=O)[C@H]([C@@H](C)O)NC(=O)[C@H](CCN)NC(=O)[C@H](CCN)NC(=O)[C@H](CC(C)C)NC(=O)[C@@H](CC(C)C)NC(=O)[C@H](CCN)NC1=O)[C@@H](C)O [colistin] | inactive: 1.14
21 | CN1C(=O)CCS(=O)(=O)C1c1ccc(Cl)cc1 (stereo unspecified) [Chlormezanone] + CCC(C)CCCC(=O)N[C@@H](CCN)C(=O)N[C@H](C(=O)N[C@@H](CCN)C(=O)N[C@H]1CCNC(=O)[C@H]([C@@H](C)O)NC(=O)[C@H](CCN)NC(=O)[C@H](CCN)NC(=O)[C@H](CC(C)C)NC(=O)[C@@H](CC(C)C)NC(=O)[C@H](CCN)NC1=O)[C@@H](C)O [colistin] | inactive: 1.17

Single entries from the list.
OD600 with CCN(C)C(=O)Oc1cccc([C@H](C)N(C)C)c1 [Rivastigmine tartrate] + CCC(C)CCCC(=O)N[C@@H](CCN)C(=O)N[C@H](C(=O)N[C@@H](CCN)C(=O)N[C@H]1CCNC(=O)[C@H]([C@@H](C)O)NC(=O)[C@H](CCN)NC(=O)[C@H](CCN)NC(=O)[C@H](CC(C)C)NC(=O)[C@@H](CC(C)C)NC(=O)[C@H](CCN)NC1=O)[C@@H](C)O [colistin] is entered as inactive: 0.768
OD600 with COc1cc2c(c(OC)c1OC)-c1ccc(OC)c(=O)cc1[C@@H](NC(C)=O)CC2 [Colchicine] + CCC(C)CCCC(=O)N[C@@H](CCN)C(=O)N[C@H](C(=O)N[C@@H](CCN)C(=O)N[C@H]1CCNC(=O)[C@H]([C@@H](C)O)NC(=O)[C@H](CCN)NC(=O)[C@H](CCN)NC(=O)[C@H](CC(C)C)NC(=O)[C@@H](CC(C)C)NC(=O)[C@H](CCN)NC1=O)[C@@H](C)O [colistin] is entered as inactive: 1.08

Source: the supplement of paper PMC11546906
